Assay results published in PMC11313276, “Structures of Mature and Urea-Treated Empty Bacteriophage T5: Insights into Siphophage Infection and DNA Ejection” (International Journal of Molecular Sciences, 2024).
No constants are given. Whether binding was seen depends on the method and setting. Binding calls can cover weak binding; strength is not graded here.

Legend:
[1] = biological target: adaptor protein p144 (bacteriophage T5); assay: cryo-EM structure; urea-treated empty T5 (purified virions, 4 M urea, 2 h, 37 °C, dialyzed in buffer A; DNA and TMP ejected, tip complex lost); symmetry-mismatch and local reconstruction of the connector complex; both purified
[2] = biological target: adaptor protein p144 (bacteriophage T5); assay: cryo-EM structure; mature T5 virions (fiberless mutant) purified by CsCl gradients, in buffer A (100 mM NaCl, 1 mM MgSO4, 1 mM CaCl2, 10 mM Tris-HCl, pH 7.6); icosahedral, symmetry-mismatch and local reconstructions of head, portal, connector, tail tube and tail tip; both purified

B1: portal protein pb7 (natural protein, bacteriophage T5)
chain: LNPGQRIIRDMEPVSHRTNRKPFTTGQAYSKIEILNRTANMVIDSAAECSYTVGDKYNIVTYANGVKTKTLDTLLNVRPNPFMDISTFRRLVVTDLLFEGCAYIYWDGTSLYHVPAALMQVEADANKFIKKFIFNNQINYRVDEIIFIKDNSYVCGTNSQISGQSRVATVIDSLEKRSKMLNFKEKFLDNGTVIGLILETDEILNKKLRERKQEELQLDYNPSTGQSSVLILDGGMKAKPYSQISSFKDLDFKEDIEGFNKSICLAFGVPQVLLDGGNNANIRPNIELFYYMTIIPMLNKLTSSLTFFFGYKITPNTKEVAALTPDKEAEAKHLTSLVNNGIITGNEARSELNLEPLDDEQMNKIRIPANVAGSATGVSGQEGGRPKGSTEGD
notes: portal protein pb7 of bacteriophage T5, 403 residues in total; atomic model built for residues 11-377; source: also in virions treated with 4 M urea for 2 h at 37 °C and dialyzed; copies: 12
binding [1]: binds
binding [2]: binds
